The list shows a part of the results, in another mix than the full data. At the low end of the ranking the order means little.
target: T1, ELF3 (UniProt P78545); assay: DAPPL (digital affinity profiling via proximity ligation, sequencing); conditions: 10 mM Tris-HCl pH 7.5, 50 mM NaCl, 1 mM DTT, 4% glycerol, room temperature, 30 min; GST-TFs on glutathione beads, 16-mer random dsDNA library, 0.1% …; high values mean tight binding; double strand, one strand shown; scale: fold enrichment (6-mer frequency, TF over GST control)
T1 sequence: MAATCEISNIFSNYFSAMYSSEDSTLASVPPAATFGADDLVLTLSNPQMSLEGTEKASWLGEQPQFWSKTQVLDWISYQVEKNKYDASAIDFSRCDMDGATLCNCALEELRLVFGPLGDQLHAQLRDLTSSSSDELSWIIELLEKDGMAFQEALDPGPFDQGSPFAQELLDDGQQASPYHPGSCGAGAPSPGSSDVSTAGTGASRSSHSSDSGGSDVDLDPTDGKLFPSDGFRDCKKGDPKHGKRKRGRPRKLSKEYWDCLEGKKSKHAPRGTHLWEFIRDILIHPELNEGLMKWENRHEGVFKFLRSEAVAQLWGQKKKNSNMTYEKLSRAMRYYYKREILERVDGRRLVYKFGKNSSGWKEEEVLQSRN

Sequence	binding signal
TGACGC	1.11
GCAAAT	1.17
GATAAT	0.903
CGTACC	1.25
CATGTT	0.909
CATCGC	0.942
TCAAGG	0.952
CCGACA	1.18
TAGTTG	0.942
GTGTTT	1.17
GTACCT	1.57
CCTCAG	1.35
TGCGGC	1.33
TTCTTA	1.47
GAAGAA	1.26
GCACGA	1.16
GTTATG	1.25
CAATGG	0.958
TGGTCC	0.93
GTATGG	1.04

Sequence	binding signal
ACCTAT	1.24
CTGTTC	1.63
GGAAGT	3.25
TATTTT	1.36
GCAACC	0.965
ATTGTC	0.879
TCCTCG	1.53
ATACTC	1.23
GTACTA	0.862
CATCAC	1.14
CGGTTC	1.33
TTGAGG	1.05
ACTCCA	0.993
TTACCA	1.1
TCTATA	1.08
TACATA	1.18
AGCTTA	1.23
TCTCTC	1.39
ACGGTT	0.921

Quoted from the listing:
Entry of ATTGTC under binding signal: 0.879
Entry of TACATA under binding signal: 1.18

— article PMC7862700
